Measured values taken from PubChem BioAssay AID504775 (Broad Institute, 2011).
Screen size: about 320,000 compounds; about 310 (0.097%) were called active. Inconclusive means that the source gave no clear call. Such entries were picked first, then a sample of the others.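 How the source made its calls: active means mean replicate activation of at least 60% and every replicate at or above 60%; inconclusive means mean or all-replicate condition met, but not both; inactive means mean below 60% and not all replicates reaching 60%.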

assay: enhancers of HDL lipid transfer via mSR-BI – ldlA[mSR-BI] CHO cells, DiI fluorescence, primary screen (AID 504775); conditions: DiI-HDL uptake fluorescence, 3 h, at 12.5 µM, hits give high values, 100 = double the neutral-control signal;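 further: 0% = median plate neutral-control signal and 100% = twice that signal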
Summary of the method: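 Material: SR-BI-overexpressing, LDLR-lacking CHO cells | Dosing: Single compound concentration, delivered by pin transfer | Probe or stimulus: Labelled HDL, 10 µg/mL | Signal: Bottom-read cell fluorescence after medium removal, ex 550/em 595 nm | Schedule: 3 h, 37 °C | Evaluation: HDL uptake via cellular fluorescence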

| SMILES | activation |
| --- | --- |
| COc1ccc(C)cc1S(=O)(=O)n1cnc2ccccc21 | inconclusive: 104% |
| COc1ccc(NC(=S)N2CCc3cc(OC)c(OC)cc3C2)cc1 | inconclusive: 143% |
| CCCCCC(=O)Nc1cc(S(=O)(=O)O)cc2cc(S(=O)(=O)O)cc(O)c12 | inactive: 9.79% |
| Cc1csc2nc3cc(C(N)=O)ccc3c(=O)n12 | inactive: 19.3% |
| O=c1c2c3nc4ccccc4nc3n(/N=C/c3ccco3)c2ncn1CCC1=CCCCC1 | active: 67.3% |
| CCOC(=O)N1CCc2c(sc3ncn(C)c(=O)c23)C1 | inactive: 25.5% |
| CCC(C)[C@H](N)c1cn([C@@H](Cc2cc3ccccc3[nH]2)C(=O)N2CCNCC2)nn1 (some centres undefined) | inconclusive: 82.8% |
| CC1CCCC(C)N1C(=O)COc1ccc(C(=O)Nc2ccccc2N2CCOCC2)cc1 (centres undefined) | inactive: -82.3% |
| Cc1ccc(C2=NOC(=O)/C2=C\c2ccc(C)o2)cc1 | inconclusive: 172% |
| CCNC(=S)NS(=O)(=O)c1ccc(CC)cc1 | inconclusive: 102% |
| CCCCSC1=C(C#N)C(c2ccccc2C)C(C(=O)OCC)C(=O)N1 (centres undefined) | inconclusive: 67.6% |
| CC1CCN(Cc2cc(=O)oc3cc4c(cc23)CCCC4)CC1 | inconclusive: 178% |
| O=C(/C=C/c1cccs1)Nc1scc(-c2ccccc2)c1C(=O)O | inconclusive: 199% |
| COc1ccc(Cc2c(N)nc(C)nc2N)cc1 | inconclusive: 126% |
| O=C(Nc1ccc(F)cc1)Nc1ccc2c(c1)CCC2 | inactive: -14.2% |
| COc1ccccc1NC(=O)Nc1ccc(S(=O)(=O)Nc2onc(C)c2C)cc1 | inconclusive: 67.1% |
| O=C(CSc1nnc(COc2ccc(Cl)cc2)o1)N1CCCC1 | inactive: 20.8% |
| Cc1cc(NC(=O)c2sccc2C)n(-c2cccc(Cl)c2)n1 | inconclusive: 81.6% |
| CC(C)C(=O)Nc1nnc(SCC(=O)NCC2CCCO2)s1 (centres undefined) | inactive: 10.1% |
| Cc1ccc(S(=O)(=O)NNC(=O)c2sc3nc(C)cc(C)c3c2-n2cccc2)cc1 | inconclusive: 60.6% |

| SMILES | activation |
| --- | --- |
| Cc1ccc(SCCC(=O)NCc2ccncc2)cc1 | inconclusive: 142% |
| CCCCC(CC)C(=O)Nc1cc(=O)[nH]c2nc3ccccc3n12 (centres undefined) | active: 410% |
| O=C(Nc1ccc(Cl)cc1Cl)c1cc2ccccc2o1 | inconclusive: 126% |
| O=C(O)CC1(CC(=O)NCc2ccncc2)CCCCC1 | inactive: 39.4% |
| CCOc1ccc(CCNC(=O)c2ccc(C)c(S(=O)(=O)N3CCOCC3)c2)cc1OCC | inactive: -60.4% |
| CCC(C)Sc1cc(-c2nc3ccccn3c2NC2CCCCC2)ccc1OC (centres undefined) | active: 65.9% |
| N#C/C(=C(/O)c1ccc(C(=O)c2ccccc2)cc1)c1nc2ccccc2[nH]1 | active: 243% |
| O=C1NC(=O)C2(CCC(C3CCCCC3)CC2)N1 (centres undefined) | inconclusive: 233% |
| Cc1ccc2nc(SCC(=O)Nc3ccc(C)c([N+](=O)[O-])c3)[nH]c2c1 | inactive: -16.6% |
| CC(=O)Nc1ccc(OCc2nnc(-c3ccccc3)o2)cc1 | inconclusive: 153% |
| C/C(CC(=O)NCc1ccco1)=N\NC(=O)c1ccc([N+](=O)[O-])cc1Cl | inconclusive: 192% |
| CCOc1ccccc1C(=O)NCCC(=O)O | inconclusive: 61.7% |
| CCOC(=O)c1nn(-c2ccc(F)cc2)c(=O)cc1OCC(=O)N1CCN(c2ccccc2)CC1 | inconclusive: 247% |
| CC(CCc1ccc(O)cc1)NCc1ccc(Br)cc1 (centres undefined) | inconclusive: 144% |
| CCOC(=O)C(CCC(C)=O)C(=O)c1ccccc1 (centres undefined) | inconclusive: 62.5% |
| COc1ccc(C(C(=O)NC2CCCCC2)N(C(=O)CCl)c2ccccc2Cl)cc1 (centres undefined) | active: 88.3% |
| CCCC(=O)Nc1ccc2c(c1)c1ccccc1n2CC | inactive: -43% |
| CCOc1nc(C)nc(NC(=O)NS(=O)(=O)c2ccccc2Cl)n1 | active: 61.2% |
| O=C1NC(=S)S/C1=C\c1cccc([N+](=O)[O-])c1 | inactive: 15.2% |
| COC(=O)Nc1nnc(Cc2ccc(OC)cc2)s1 | inconclusive: 326% |

| SMILES | activation |
| --- | --- |
| CC1CCCCC1NC(=O)c1nn(C)c2c1CS(=O)(=O)c1ccccc1-2 (centres undefined) | inactive: -77.7% |
| COc1cccc(/C=N/NC(=O)c2c(-c3ccccc3)noc2C)c1 | inconclusive: 430% |
| Cc1cc(=O)oc2cc(OCC(=O)Nc3ccc4[nH]c(=O)[nH]c4c3)ccc12 | inconclusive: 267% |
| CC(=O)C1CCC2C3CCC4CC(=O)CCC4(C)C3C(C)(O)CC12C (centres undefined) | inconclusive: 182% |
| O=C(O)c1cc(NS(=O)(=O)c2ccc(F)cc2)cc(NS(=O)(=O)c2ccc(F)cc2)c1 | inactive: 12.6% |
| O=C(c1ccccn1)N(Cc1ccco1)C1(C(=O)NC2CCCC2)CCCCC1 | inactive: 39.2% |
| O=C1C(=O)N2C(=C1C(=O)N1CCCCCC1)c1ccccc1CC21CCCC1 | inconclusive: 347% |
| Oc1c(Br)cc(Br)cc1/C=N/NC(=S)N[C@H]1CC2C=CC1C2 (some centres undefined) | inactive: -78.2% |
| CON(C)C(=O)/C=C/CCCCNC(=O)OC(C)(C)C | active: 63.5% |
| Cc1ccc(CNC(=O)NCc2ccccc2)cc1 | inactive: 25% |
| COc1ccc(OC)c(NC(=O)Cc2nn(C)c(=O)c3ccccc23)c1 | inconclusive: 106% |
| COc1ccccc1N(CC(=O)NC(C)(C)C)C(=O)CCC(=O)Nc1ccccn1 | inconclusive: 372% |
| Cc1cc(C)cc(C(=O)Nc2c3c(nn2C(C)(C)C)CS(=O)(=O)C3)c1 | inconclusive: 110% |
| Cc1nn(Cc2ccccc2Cl)c2sc(C(=O)Nc3nccs3)cc12 | inactive: -18.8% |
| Cc1ccc(C)c(NC(=O)C(Sc2nc3ccc(C)cc3[nH]2)c2ccccc2)c1 (centres undefined) | inconclusive: 265% |
| Cc1ccccc1COc1ccc(/C(O)=C2/C(=O)C(=O)N(CCCn3ccnc3)C2c2ccco2)cc1 (centres undefined) | inconclusive: 60% |
| CCCCC1OC23CCCCC2C(C#N)(C(=N)O3)C1(C#N)C#N (centres undefined) | active: 80.8% |
| CCCCN1CNC(=S)N(CCc2ccccc2)C1 | inconclusive: 62.3% |
| CC(=O)Nc1ccc(S(=O)(=O)NC2Cc3ccccc3C2)cc1 | inconclusive: 108% |

A draw from above in order of formula weight, descending.

| SMILES | activation |
| --- | --- |
| CC(C)C(=O)Nc1nnc(SCC(=O)NCC2CCCO2)s1 (centres undefined) | inactive: 10.1% |
| O=C(Nc1ccc(Cl)cc1Cl)c1cc2ccccc2o1 | inconclusive: 126% |
| O=C1NC(=S)S/C1=C\c1cccc([N+](=O)[O-])c1 | inactive: 15.2% |
